From patent publication US10155020B2, “Compositions and methods for treating hepatitis B” (The Regents of the University of Colorado, a body corporate, priority 2012, dated 2018)
These are yes or no findings as the source states them, for the method shown. Some entries that bind do so weakly or less than the wild type.

Biological target: T1, CED-9 (C. elegans, UniProt P41958 1-251)
T1 sequence (looked up): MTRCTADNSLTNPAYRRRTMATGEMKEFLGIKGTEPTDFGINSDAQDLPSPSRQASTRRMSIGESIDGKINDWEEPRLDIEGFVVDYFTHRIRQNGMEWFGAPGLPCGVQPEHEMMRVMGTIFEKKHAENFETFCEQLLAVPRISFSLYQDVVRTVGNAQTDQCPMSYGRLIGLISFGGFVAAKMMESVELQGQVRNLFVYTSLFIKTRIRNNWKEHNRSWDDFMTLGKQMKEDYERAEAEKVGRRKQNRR
Assay: gel filtration (Superdex 200)

binding: binds
B1: CED-4 (protein, C. elegans, UniProt P30429 1-549, looked up)
chain: MLCEIECRALSTAHTRLIHDFEPRDALTYLEGKNIFTEDHSELISKMSTRLERIANFLRIYRRQASELGPLIDFFNYNNQSHLADFLEDYIDFAINEPDLLRPVVIAPQFSRQMLDRKLLLGNVPKQMTCYIREYHVDRVIKKLDEMCDLDSFFLFLHGRAGSGKSVIASQALSKSDQLIGINYDSIVWLKDSGTAPKSTFDLFTDILLMLKSEDDLLNFPSVEHVTSVVLKRMICNALIDRPNTLFVFDDVVQEETIRWAQELRLRCLVTTRDVEISNAASQTCEFIEVTSLEIDECYDFLEAYGMPMPVGEKEEDVLNKTIELSSGNPATLMMFFKSCEPKTFEKMAQLNNKLESRGLVGVECITPYSYKSLAMALQRCVEVLSDEDRSALAFAVVMPPGVDIPVKLWSCVIPVDICSNEEEQLDDEVADRLKRLSKRGALLSGKRMPVLTFKIDHIIHMFLKHVVDAQTIANGISILEQRLLEIGNNNVSVPERHIPSHFQKFRRSSASEMYPKTTEETVIRPEDFPKFMQLHQKFYDSLKNFACC
